Results are given in words; binding and its absence hold for the method and conditions named. For some of these results: Binding can be weak; no strength is given.
What was measured:
Experiment in all cases: far-Western, overlay or dot blot; M proteins (25 ug/mL) run on a gel and transferred to a membrane, blocked with 5% BSA in PBST; probed with human fibrinogen (250 ug/mL) for 1 h at 37 C; detected with FITC-labeled antifibrinogen; both purified
[1] = molecular target: M89 protein (Streptococcus pyogenes) (UniProt Q54841)
[2] = molecular target: M28 protein (Streptococcus pyogenes) (UniProt Q54841)
[3] = molecular target: M1 protein (Streptococcus pyogenes) (UniProt Q99XV0)
[4] = molecular target: M3 protein (Streptococcus pyogenes) (UniProt Q54841)

The chains behind the UniProt entries cited, without tags or fusion partners. Where a name states a change or a piece, a line headed by the entry shows the natural chain unless it says otherwise.
UniProt Q54841: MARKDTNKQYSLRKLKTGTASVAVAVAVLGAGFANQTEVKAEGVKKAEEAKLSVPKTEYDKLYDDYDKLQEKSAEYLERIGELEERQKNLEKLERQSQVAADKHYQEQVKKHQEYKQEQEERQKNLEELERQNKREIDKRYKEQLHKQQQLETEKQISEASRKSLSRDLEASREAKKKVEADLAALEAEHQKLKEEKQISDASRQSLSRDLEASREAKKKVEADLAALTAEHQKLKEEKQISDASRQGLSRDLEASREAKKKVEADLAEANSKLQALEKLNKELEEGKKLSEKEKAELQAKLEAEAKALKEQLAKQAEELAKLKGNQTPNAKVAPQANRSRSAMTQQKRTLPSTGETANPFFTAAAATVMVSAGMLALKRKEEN
UniProt P02671: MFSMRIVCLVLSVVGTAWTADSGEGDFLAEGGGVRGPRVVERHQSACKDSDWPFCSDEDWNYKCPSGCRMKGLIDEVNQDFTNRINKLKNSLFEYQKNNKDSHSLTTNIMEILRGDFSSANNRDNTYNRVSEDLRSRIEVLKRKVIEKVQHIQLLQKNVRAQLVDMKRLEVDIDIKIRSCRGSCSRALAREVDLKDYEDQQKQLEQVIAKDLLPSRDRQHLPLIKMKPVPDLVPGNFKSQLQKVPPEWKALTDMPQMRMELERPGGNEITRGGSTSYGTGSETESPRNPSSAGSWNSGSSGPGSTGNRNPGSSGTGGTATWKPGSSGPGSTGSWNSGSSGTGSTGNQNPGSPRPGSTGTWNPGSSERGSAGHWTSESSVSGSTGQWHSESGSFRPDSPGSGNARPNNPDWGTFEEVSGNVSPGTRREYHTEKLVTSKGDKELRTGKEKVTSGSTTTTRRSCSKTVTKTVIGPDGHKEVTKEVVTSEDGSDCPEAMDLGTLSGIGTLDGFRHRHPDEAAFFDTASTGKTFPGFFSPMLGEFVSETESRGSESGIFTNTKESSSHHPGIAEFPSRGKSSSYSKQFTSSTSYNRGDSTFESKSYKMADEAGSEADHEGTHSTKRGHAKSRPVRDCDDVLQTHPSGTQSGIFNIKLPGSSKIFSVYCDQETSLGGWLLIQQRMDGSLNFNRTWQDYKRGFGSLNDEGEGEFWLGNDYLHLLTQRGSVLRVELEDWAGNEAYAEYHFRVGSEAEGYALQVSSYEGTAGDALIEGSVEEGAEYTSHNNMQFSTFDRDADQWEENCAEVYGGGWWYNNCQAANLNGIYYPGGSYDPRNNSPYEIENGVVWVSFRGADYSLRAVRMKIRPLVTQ

## human fibrinogen (from UniProt P02671 36-866; P02675 45-491; P02679 27-453)
[1]
  binding: no binding (tested: 250 ug/mL fibrinogen)
[2]
  binding: no binding (tested: 250 ug/mL fibrinogen)
[3]
  binding: binds
[4]
  binding: binds

— publication PMC8852700
